Experimental data taken from patent publication US20260258085A1 (METHYCURE BIOTECH CORP., priority 2023, published 2026).

Test: peptide synthesis
Conditions: whole synthesis, HPLC peak area

## {6-ME-Octanoic acid}-{Dab}-{Thr}-{D-Dab}-{Dab}-{Dab}-{D-Leu}-{Ile}-{Dab}-{Dab}-{Leu}
  final HPLC purity: 97.211%
